Measured values reported in patent US11584725B2, “Pyrazinoic acid conjugates and hybrid conjugates” (Augusta University Research Institute, Inc., priority 2018, dated 2023).
Some of these results come from one statement about several compounds together. Some compounds share one range, which may span the group rather than tell each member.

System: Mycobacterium fortuitum
Assay: Anti-mycobacterial MIC
Format: cell-based
Conditions: MIC vs INH

Compound	Potency relative to the standard reference (INH)
O=C(NNC(=O)c1ccncc1)c1ccncc1 [Iso-INH]	2-3 folds
NC(=O)c1cnccn1 [PZA, Pyrazinamide, reference compound]	2-3 folds
